# Measurements from PubChem BioAssay AID504467 (National Center for Advancing Translational Sciences (NCATS), 2011).
# Hit rate of the full screen: of about 330,000 compounds, about 7,700 (2.3%) were called active. The shares of active, inactive and inconclusive entries below differ from those in the screen. Calls come from the whole dose curve; as a rule, active = well fitted inhibition curve with a large enough effect; inconclusive = small, poorly fitted or top-dose-only effect, or effect the other way; inactive = flat fitted curve, though single readings scatter. Potencies beside an inconclusive call are fits to weak or partial responses and may not hold up.
# Assay: qHTS screen for small molecules that inhibit ELG1-dependent DNA repair in human embryonic kidney (HEK293T) cells expressing luciferase-tagged ELG1; note: nearly all actives have a fitted effect of over 55% in size
# Conditions: HEK293T ELG1-luciferase reporter, luminescence, 16 h, DNA damage induced by 5-fluorouridine; activity change, negative = inhibition: at 46.1 µM (top of the series)
# Procedure, shortened: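 Quantitative HTS, concentration-response format. 2,000 cells/well co-treated with 5-fluorouridine and compound, 16 hr in 5% CO2 at 37 °C; ONE-Glo luminescence read after 30 min.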
# % is set by controls: 0 for no effect and ±100 for the full control effect; potency is the fitted concentration of half-maximal effect.
Structure (SMILES),"activity change, negative = inhibition",Potency
COc1ccc(CC(=O)Nc2cc(=O)n(C)c(=O)n2C)cc1,inactive: 3.62%,–
CCOC(=O)C1CCN(c2ncnc3c2cnn3-c2ccc(Cl)cc2)CC1,–,"inconclusive: 16.4 µM [activator, single point]"
CCOc1cc(N2CCOCC2)c(OCC)cc1NC(=O)c1ccc(NC(C)=O)cc1,inactive: -26.5%,–
COc1ccccc1NC(=O)NCCC1=CCCCC1,inactive: -14.6%,–
O=C(COc1cccc2c1CCN(Cc1ccc(Br)cc1)C2=O)NCc1ccco1,–,active: 18.4 µM
Cc1cc2c(SCC(=O)N3CCN(c4ccccc4)CC3)ncnc2s1,–,"inconclusive: 23.1 µM [inhibitor, single point]"
C(=N\Nc1ccc(-n2ccnc2)nn1)/c1ccccc1,inactive: 0.227%,–
COc1ccc(NC(=O)COC(=O)c2n[nH]c3ccccc23)c(OC)c1,inactive: -16.4%,–
CCn1c(-c2ccccc2Cl)nn(CC(=O)NCCc2ccccc2)c1=S,inactive: -5.74%,–
Cc1ccc(Nc2oc(C)nc2C#N)cc1,–,"inconclusive: 20.6 µM [activator, partial curve]"
O=C(C1=C[C@@H](c2coc3ccccc3c2=O)C[C@@H](OCCCCO)O1)N1CCN(Cc2ccc3c(c2)OCO3)CC1,–,"inconclusive: 14.6 µM [inhibitor, partial curve]"
COc1ccccc1NC(=O)CSc1nnc2ccccn12,–,"inconclusive: 16.4 µM [activator, single point]"
CC(=O)SC(C[N+](=O)[O-])c1cn(C(C)=O)c2ccccc12 (configuration not stated),–,"inconclusive: 29.1 µM [inhibitor, single point]"
Cc1ccc(C(=O)NCC(=O)NC23CC4CC(CC(C4)C2)C3)cc1,–,"inconclusive: 10.3 µM [activator, partial curve]"
CC(C)(C)c1cc(C(F)(F)F)nc(SCCCNC(=O)c2ccco2)n1,–,"inconclusive: 20.6 µM [inhibitor, partial curve, poor fit]"
Cc1nn(C)c(C)c1NC(=O)COc1ccc(F)cc1Br,–,"inconclusive: 9.2 µM [inhibitor, partial curve]"
Cc1cc(C)cc(C(=O)Nc2nc3ccccc3[nH]2)c1,–,"inconclusive: 6.51 µM [activator, partial curve]"
O=C(Cn1nnc2ccccc21)c1ccccc1,–,"inconclusive: 23.1 µM [activator, single point]"
NC(=O)CSc1nc2ccccc2c(=O)n1-c1ccccc1,–,"inconclusive: 0.891 µM [activator, full curve, poor fit]"

Structure (SMILES),"activity change, negative = inhibition",Potency
CNC(=O)c1ccccc1NC(=O)c1c(O)c2c([nH]c1=O)CCCC2,–,"inconclusive: 11.2 µM [activator, single point]"
NC(=O)[C@H](Cc1cc2ccccc2s1)NC(=O)[C@@H]1CC2(CC(c3cccc(NC(=O)[C@@H]4CCC(=O)N4)c3)=NO2)CN1C(=O)/C=C/Sc1ccccc1 (some centres not stated),inactive: -10.4%,–
O=C(c1ccco1)N1CCN(C(=O)C(Sc2ccccc2)c2ccccc2)CC1 (configuration not stated),–,"inconclusive: 15.8 µM [inhibitor, single point]"
CC(=O)Nc1ccc(C(=O)NCC(=O)OCc2c(F)cccc2Cl)cc1,–,"inconclusive: 25.9 µM [activator, partial curve, poor fit]"
COc1cc2ccccc2cc1C(=O)N1CCc2ccccc21,–,"inconclusive: 8.2 µM [inhibitor, partial curve, poor fit]"
O=C(Nc1ccc2c(c1)CCC2)c1ccc(F)c(S(=O)(=O)N2CCOCC2)c1,inactive: -16.9%,–
COC(=O)c1cc(C)sc1NC(=O)C1CC(=O)NN1Cc1ccccc1 (configuration not stated),inactive: 4.12%,–
COc1ccccc1NC(=O)COc1ccc(-c2nn(C)c(=O)c3ccccc23)cc1,–,active: 16.4 µM
O=C(CNc1cccc(Cl)c1)c1ccc(Br)cc1,–,"inconclusive: 29.1 µM [activator, single point]"
O=C(Cc1ccccc1)Nc1cccc(NC(=O)c2cccs2)c1,–,"inconclusive: 23.1 µM [inhibitor, partial curve]"
O=C(COC(=O)c1ccc(F)cc1F)NCCC1=CCCCC1,–,"inconclusive: 14.6 µM [activator, partial curve, poor fit]"
CC(C)(C)n1nc2c(c1NC(=O)c1c(F)cccc1F)CS(=O)(=O)C2,inactive: 3.97%,–
O=[N+]([O-])c1ccc(-c2csc(Nc3ccccc3)[n+]2Cc2ccccc2)cc1,–,"inconclusive: 29.1 µM [activator, single point]"
C/C(=N\NC(=O)c1nc(C)cc(C)n1)c1ccccc1,–,"inconclusive: 11.6 µM [activator, partial curve]"
COc1ccc(CCNC(=O)C(=O)NCC2OCCN2S(=O)(=O)c2ccc(OC)cc2)cc1 (configuration not stated),–,"inconclusive: 29.1 µM [inhibitor, single point]"
Cc1oc(=O)cc(OCc2ccccc2)c1C,inactive: 5.15%,–
OCC1(Cc2cccc(C(F)(F)F)c2)CCN(Cc2cc(F)cc(F)c2)CC1,inactive: -14.3%,–
O=S(=O)(Nc1ccccc1O)c1ccc(-c2ccccc2)cc1,–,"inconclusive: 29.1 µM [inhibitor, single point]"

# Entries of single compounds as entered above:
# CNC(=O)c1ccccc1NC(=O)c1c(O)c2c([nH]c1=O)CCCC2 is listed as Potency: inconclusive: 11.2 µM [activator, single point]
# COC(=O)c1cc(C)sc1NC(=O)C1CC(=O)NN1Cc1ccccc1 (configuration not stated) is listed as activity change, negative = inhibition: inactive: 4.12%
